# Reference: the supplement of paper PMC3334620
# The full ranking holds about 33,000 sequences; the median of “E-score (-0.5 to 0.5)” is about -8e-05, and the highest 2% start at about 0.23. Some of the results follow.
# Target: T1, Nrg2 (UniProt P38082)
# T1 sequence: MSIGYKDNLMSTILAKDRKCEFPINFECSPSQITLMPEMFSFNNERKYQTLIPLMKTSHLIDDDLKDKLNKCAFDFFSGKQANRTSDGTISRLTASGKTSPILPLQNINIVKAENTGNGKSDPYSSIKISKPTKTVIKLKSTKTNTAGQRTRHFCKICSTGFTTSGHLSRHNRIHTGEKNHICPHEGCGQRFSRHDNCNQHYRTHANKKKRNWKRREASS
# Assay: PBM E-score (8-mer binding enrichment) (E-score (-0.5 to 0.5)); higher = stronger / more preferred TF binding
# Settings: protein concentration: 100 nM; construct: GST-full length
# Method: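 Universal 'all 10-mer' protein binding microarrays (Agilent AMADID 015681) probed with GST-tagged S. cerevisiae TFs (full-length or DBD) made by in vitro transcription/translation (PURExpress), about 100-200 nM. Bound TF was detected with fluorescent anti-GST. Each ungapped 8-mer (which stands for itself and its reverse complement) is scored by the PBM enrichment score (E-score), a modified Wilcoxon-Mann-Whitney statistic from -0.5 to +0.5, computed with the Universal PBM Analysis Suite. Scale: above 0.35 generally sequence-specific binding.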
row,Sequence,PBM E-score
1,GTGTGGAA,-0.0645
2,GAAAGGAA,0.0899
3,AGGTGATG,-0.158
4,TAGTATCA,0.283
5,CTACATCA,0.0792
6,GCACTGTA,0.15
7,CTGACCAG,-0.0108
8,AGCGAGAG,0.0268
9,ATAGACGG,0.0402
10,AGTAGAGG,-0.151
11,GCCACGAC,0.0517
12,AGTTACGC,-0.157
13,TAACTGTA,-0.0145
14,ATATCTGC,0.0558
15,ACGTCCCT,0.117
16,ACGATAAA,-0.168
17,GCCTTGGA,0.0174
18,AACTCTCT,-0.028
19,ACATGTAA,0.0879
20,GTTGACTA,-0.0973
21,AAAGTAGG,0.112
22,AGAGGCTG,-0.272
23,TAGGCCCA,-0.175
24,CTCAAACA,0.113
25,ACTGCCCG,0.00041

row,Sequence,PBM E-score
1,AGCGCTTA,0.131
2,ATGTGAAC,0.0728
3,ACGACAAC,0.196
4,TAAATTAA,0.139
5,CCTTGATA,0.117
6,ATTGCACC,0.0876
7,GGCGCTTA,-0.124
8,ATCTAGCA,0.216
9,ATATTAAT,0.286
10,CACCATTA,-0.0449
11,ACTGCTTA,-0.176
12,ATATGACG,0.0293
13,CATCTCGG,0.085
14,AGAGCCAG,-0.195
15,AAATCGTC,0.00585
16,ACCACAGA,0.0044
17,AACGCTTC,-0.0033
18,AACCACCA,0.00348
19,ACCGCGGG,0.171
20,CTAAAGAA,0.01
21,AGCCGCAT,0.0608
22,ATGAAAAG,0.0798
23,ACATACTA,0.142
24,CTCTAGAC,-0.27
25,ACTACCGG,-0.171

row,Sequence,PBM E-score
1,GCAATGGA,-0.0172
2,AAACAAGT,0.0802
3,CTGGGGCC,-0.146
4,AGCCCCGC,-0.045
5,GATGCCCC,-0.142
6,AAGTGGCA,0.00942
7,TCGCAACA,-0.00912
8,ATTGACCA,0.0894
9,GATTAGCA,0.117
10,CTGCCTCA,-0.149
11,GTTAAACA,-0.0195
12,CGCTAATA,0.135
13,ACCGTGAT,-0.0559
14,ACCGGGTG,0.0298
15,ACCTGACG,-0.0678
16,GCACCCCC,-0.415
17,AGCAACCT,0.0551
18,CTGACCAA,0.108
19,TGGTCACA,0.0019
20,GGGGAACC,-0.306
21,AGCAGTAC,0.0383
22,CTCTCGTA,0.0224
23,ACCACGTC,-0.0526
24,AACTTTGG,-0.0393
25,ATGTTGAG,0.035

row,Sequence,PBM E-score
1,ACCACATC,0.065
2,GCAATTCC,-0.0691
3,CCAAATCG,-0.103
4,GGGGTACA,-0.0329
5,ACAATACC,0.291
6,CCTCAGAC,-0.149
7,AACAGGTG,0.0236
8,CCTTCAGC,-0.121
9,CAGACATA,-0.0103
10,CCGCGGAG,-0.0834
11,AAACGGCA,-0.0106
12,ACTAGCGA,-0.0233
13,ATACATCA,0.153
14,GTCTTCAA,-0.0718
15,GGGCTCAA,-0.0682
16,GGATCCAC,-0.117
17,GATGCCGC,-0.0962
18,CAGAGGTA,0.0242
19,CTAACACC,-0.0699
20,GGCGTAGA,-0.0443
21,CGAGCTCG,0.241
22,AATTCGCA,0.229
23,GATCACGA,-0.0194
24,CCCTACGG,-0.0955
25,CGCGTAGC,0.0481

row,Sequence,PBM E-score
1,GACACTAC,-0.136
2,ATACTCGC,0.0784
3,CTAGAATA,0.0292
4,GAGCACTA,-0.131
5,ATCGCAAA,0.127
6,GCTAATCA,0.179
7,GCTGCCCA,-0.08
8,AGCGTTGG,-0.185
9,AAGATGGA,-0.0315
10,CGAAGTCA,-0.0646
11,ATTCGCTC,0.132
12,GCGCTGGA,0.0138
13,TATTGCCA,-0.0524
14,GATGTTCC,0.0463
15,ACAGCTCC,-0.0601
16,AAATGTAG,-0.00514
17,TACAATCA,-0.0931
18,AAGAGATA,-0.0138
19,ATTCGTAC,0.155
20,GATCGACA,0.00588
21,ACCCTCCC,0.255
22,GTCGCAGA,0.203
23,AATCTTGT,0.116
24,CGTGCTAA,-0.0191
25,CCATTTGA,0.0335

row,Sequence,PBM E-score
1,AACGAAGG,-0.14
2,TCTTCGCA,0.139
3,CTTCAGTC,-0.122
4,TACTCCAA,0.0819
5,ACGTCAAC,-0.0313
6,ATTGAGTG,0.0354
7,GATCAGGC,-0.14
8,TCCAAGGA,-0.171
9,AGTCTAGA,-0.16
10,ACGCACTA,-0.00707
11,CTTTGCCC,-0.226
12,AGCGCGGA,0.102
13,ATCTATTA,0.163
14,AGACCCCC,-0.304
15,CCCCTGAA,0.356
16,ATGTATGG,-0.051
17,CATCCAAG,0.00236
18,AAGGGTAG,0.0465
19,CCTTCAAG,-0.0921
20,AGCACGAT,0.135
21,GCTAGTTA,0.0841
22,CAACTCAC,0.128
23,GCAGAATA,0.104
24,ACGAGCCC,0.0528
25,TGAACAAA,0.244

row,Sequence,PBM E-score
1,ATACCGAA,0.0263
2,ATTCTATG,0.0635
3,AGGATATG,0.192
4,ATACGGGC,-0.114
5,CAGTCTGG,-0.268
6,ATGTTCAA,-0.00349
7,CGAAAGCC,-0.19
8,CAGGTTGG,0.0184
9,ACAATGCA,0.152
10,CCGCACGG,-0.045
11,CCGCCTTA,-0.152
12,CGTGGTTA,-0.104
13,AGTCCGTC,0.0768
14,AAGACACG,0.168
15,AGTACTAA,0.11
16,AAGTTCCT,-0.0711
17,AGATTCCA,0.136
18,ATAGTAGA,0.102
19,ACGATGCA,0.0715
20,AGTATCTG,-0.0103
21,ACTGTTGA,-0.102
22,TATATGAA,0.087
23,GAGGTATA,0.0307
24,GGCCAACC,0.0203
25,TATACGAA,0.122

row,Sequence,PBM E-score
1,AATGATAA,0.179
2,ACACTCCT,-0.0582
3,AATTCCAC,0.191
4,ATGGGGCG,0.187
5,TCTGGCCA,0.0291
6,GCGATACC,-0.0961
7,AGAACTGA,0.0121
8,CCTTAGCA,0.0481
9,ATCGACGC,0.16
10,GGCCAGAC,-0.0951
11,ATTTAGTA,0.274
12,GCGGTTGA,0.09
13,GGATTAAA,0.0406
14,AAACGTAT,0.127
15,AAATGTGG,0.151
16,GCGCAAAA,0.155
17,ACCGTAAA,-0.00298
18,ACTGGCAA,-0.0546
19,AGGGAGTA,-0.118
20,CACGTTGC,-0.168
21,AAGTTCAT,0.113
22,GAGCGCGC,0.263
23,GGACCCCC,-0.144
24,AGACCACC,-0.189
25,ACTTGCAC,0.133

# Retrieved one by one from above:
row,Sequence,PBM E-score
16,GCGCAAAA,0.155
8,CCTTAGCA,0.0481

# Another view of part of the listing above.
row | Sequence | PBM E-score
4 | ATGGGGCG | 0.187
8 | CCTTAGCA | 0.0481
12 | GCGGTTGA | 0.09
15 | AAATGTGG | 0.151

# Further entries:

row,Sequence,PBM E-score
1,AGGTCGAC,0.171
2,AGGCGGCC,-0.115
3,TACGCATA,0.171
4,TATCGAAA,0.255
5,CTTGTCGC,0.19
6,ACTGAGAT,-0.0779
7,AGGGAACA,0.0207
8,AACTAAAG,0.0714
9,CTTGGGCC,-0.0162
10,AAATATGG,0.00101
11,ATCAAGGG,0.221
12,GTATCAAC,0.0324
13,CAGGATTA,-0.0705
14,ACGACGAT,-0.00018
15,CGAGCACC,-0.126
16,CCTGACTC,-0.0375
17,CAGAGATG,-0.0114
18,CATCTTCA,-0.119
19,AGACCTTC,-0.106

# Five entries from above, bar-delimited.
row | Sequence | PBM E-score
4 | TATCGAAA | 0.255
5 | CTTGTCGC | 0.19
6 | ACTGAGAT | -0.0779
7 | AGGGAACA | 0.0207
8 | AACTAAAG | 0.0714
